Measured values from paper PMC4279419, “Angiostatic, tumor inflammatory and anti-tumor effects of CXCL4^47–70 and CXCL4L1^47–70 in an EGF-dependent breast cancer model” (Oncotarget, 2014).
These are yes or no findings as the source states them, for the method shown. A result given as binding can be weak or reduced; the word gives no strength.

Target: recombinant human epidermal growth factor (EGF) (human)
Experiment: ELISA; 2 μg/ml EGF in PBS coated overnight at room temperature on high protein-binding ELISA plates, blocked with 0.1% casein; dilution curve of biotinylated peptide at 37 °C; detected with peroxidase-conjugated streptavidin, OD450; both purified

NGRKICLDLQAPLYKKIIKKLLES (peptide, UniProt P02776 78-101, biotin on the N-terminus (exactly one biotin group)) [NH2-terminally biotinylated CXCL4^47–70 peptide] was tested. Which binding did it give?
Its binding is “binds”.
